PubChem BioAssay AID1224826 – NIAID, 2016
Purpose: 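Knock-downs that raise or lower Tnf reporter signal after endotoxin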 (primary screen). Cells: RAW264.7 G9 macrophages from mouse bearing reporters for p65 (GFP) and the Tnf promoter (mCherry). Knock-down reagent: siRNA pool against mouse genes, 100 nM. Duration: 16 h of LPS stimulation, after 2 days of siRNA transfection. Challenge: bacterial lipopolysaccharide (Salmonella minnesota R595), 10 ng/ml. Read-out: 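Nuclear mCherry signal of the Tnf promoter reporter measured by imaging after background removal, scaled to each plate median and turned into robust z-scores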. Reading the numbers: Tnf reporter robust z-score: higher = stronger Tnf promoter reporter signal after LPS. Hit rule: 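Called active when robust z-score is at most -1.3, matching the median of the Tlr4 knock-down control, or over 3; control wells and wells with under 50 cells never active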. Meaning of the calls: active = Tnf reporter clearly lowered or raised; inactive = no clear change in Tnf reporter.
In all, the deposit lists about 17,000 reagents; below is a random part of them. About 1,110 of all reagents (6.6%) were called active. 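Active means lowered or raised reporter signal; replicate intensities are raw and not normalised per plate.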 Some reagents were tested in more than one well and are listed for each. Not all columns of the deposit are shown.

With knock-down of Vangl1 the results were Tnf reporter robust z-score -0.98; fewer than 50 cells in well enough cells in well; inactive. Oxct1 showed Tnf reporter robust z-score 1.54; fewer than 50 cells in well enough cells in well; inactive. B4galnt3 showed Tnf reporter robust z-score -0.89; fewer than 50 cells in well enough cells in well; inactive. Against Prps1l1 the deposit lists Tnf reporter robust z-score 0.51; fewer than 50 cells in well enough cells in well; inactive. For Prps1l1 the deposit lists Tnf reporter robust z-score 1.08; fewer than 50 cells in well enough cells in well; inactive. Against Fbxo46, the entry reads Tnf reporter robust z-score 0.05; fewer than 50 cells in well enough cells in well; inactive.

Olfml3 scored Tnf reporter robust z-score 2.44; fewer than 50 cells in well enough cells in well; inactive. For Aasdhppt, the values are Tnf reporter robust z-score 1.88; fewer than 50 cells in well enough cells in well; inactive. Against Rasa3 the deposit lists Tnf reporter robust z-score -0.64; fewer than 50 cells in well enough cells in well; inactive.

Entries listed so far whose gene name starts with P or p (2):
Prps1l1 → Tnf reporter robust z-score = 0.51; fewer than 50 cells in well = enough cells in well; outcome = inactive
Prps1l1 → Tnf reporter robust z-score = 1.08; fewer than 50 cells in well = enough cells in well; outcome = inactive

The listing continues.
With knock-down of Celsr3, the record shows Tnf reporter robust z-score -0.32; fewer than 50 cells in well enough cells in well; inactive. Against Lpar1, the entry reads Tnf reporter robust z-score 0.69; fewer than 50 cells in well enough cells in well; inactive. Silencing of Myl12b gave: Tnf reporter robust z-score -1.46; fewer than 50 cells in well enough cells in well; active. Knock-down of Taf1c gave: Tnf reporter robust z-score 0.77; fewer than 50 cells in well enough cells in well; inactive. Silencing of Elf5 resulted in: Tnf reporter robust z-score -0.64; fewer than 50 cells in well enough cells in well; inactive.
